Assay results from PubChem BioAssay AID540256 (National Center for Advancing Translational Sciences (NCATS), 2011).
About 3,700 (1.2%) of roughly 300,000 compounds were called active. The shares of active, inactive and inconclusive entries below differ from those in the screen. Calls come from the whole dose curve; tested in HEK293 cells. Potencies of inconclusive entries are doubtful fits and often do not repeat.
% is set by controls: 0 for no effect and ±100 for the full control effect; potency is the fitted concentration of half-maximal effect.

Test: qHTS for Inhibitors of binding or entry into cells for Lassa Virus; note: nearly all actives have a fitted effect of over 50% in size
Conditions: Lassa virus pseudotype entry inhibition, cell reporter; activity change, negative = inhibition: at 37.9 µM (top of the series) unless noted
In the case of `CC(=O)Nc1ccc(NC(=O)Cn2c(=O)n(-c3ccc(C)cc3)c(=O)c3oc4ccccc4c32)cc1`, the Potency is reported as inconclusive: 35.5 µM [inhibitor, single point]. In the case of `COc1ccc(NS(=O)(=O)c2ccc(NC(=O)C3CC3)cc2)cc1`, the Potency is reported as inconclusive: 35.5 µM [inhibitor, partial curve, poor fit]. For `CCNS(=O)(=O)c1ccc(CCC(=O)N2CCN(c3cccc(Cl)c3)CC2)cc1`, the Potency was inconclusive: 15.8 µM [inhibitor, single point]. For `CC1CCc2sc(C(=O)OCC(=O)NCc3ccc(F)cc3)cc2C1` (configuration not stated), the Potency was inconclusive: 14.1 µM [inhibitor, partial curve, poor fit]. With `Cc1nc2c(c(=O)n1CCC(C)C)c1nc3ccccc3nc1n2CC1CCCO1` (configuration not stated) the Potency was inconclusive: 6.31 µM [inhibitor, single point]. In the case of `COc1ccc(O)c(C2NC(CC(C)C)(C(=O)O)C3C(=O)N(Cc4ccccc4)C(=O)C23)c1` (configuration not stated), the “activity change, negative = inhibition” value is reported as inactive: 9.76%. With `C=CCN(C(=O)C1CC(=O)N(C2CCCC2)C1)c1nc(-c2ccc(S(C)(=O)=O)cc2)cs1` (configuration not stated) the Potency was inconclusive: 35.5 µM [inhibitor, single point]. In the case of `CCN1/C(=C\C(=S)Nc2ccccc2)Sc2ccccc21`, the Potency is reported as inconclusive: 35.5 µM [inhibitor, single point]. For `COC(=O)/C=C1\C(=O)N(c2nc3ccccc3s2)C(=S)N1c1ccc(F)cc1`, the Potency was inconclusive: 2.06 µM [inhibitor, full curve, poor fit]. In the case of `COc1ccc(C2=NC3(CCCCCC3)N(CC(=O)Nc3ccc(C)c(C)c3)C2=O)cc1`, the Potency is reported as inconclusive: 35.5 µM [inhibitor, single point]. For `COc1ccc(CNC(=O)CN(c2cc(C(F)(F)F)ccc2Cl)S(C)(=O)=O)cc1`, the “activity change, negative = inhibition” value was inactive: -9.98% [at 46.1 µM]. With `O=C(O)c1cc(-n2nnnc2SCc2ccccc2F)ccc1Cl` the “activity change, negative = inhibition” value was inactive: 19.9% [at 46.1 µM]. With `COc1ccc(-c2cn[nH]c2-c2ccc(OCc3ccc([N+](=O)[O-])cc3)cc2O)cc1` the Potency was inconclusive: 10 µM [inhibitor, partial curve]. With `O=C1C2C3C=CC(C4CC34)C2C(=O)N1/N=C/c1ccc([N+](=O)[O-])s1` (configuration not stated) the Potency was inconclusive: 1.41 µM [activator, full curve]. In the case of `O=C1/C(=C/c2cccs2)CCc2ccccc21`, the Potency is reported as inconclusive: 2.06 µM [activator, full curve, poor fit]. For `N/C(=N\OC(=O)/C=C/c1ccccc1Cl)c1ccncc1`, the Potency was inconclusive: 14.1 µM [inhibitor, partial curve, poor fit]. For `O=C(N/N=C\c1ccc([N+](=O)[O-])o1)c1cncc(Br)c1`, the Potency was inconclusive: 1.26 µM [inhibitor, full curve]. In the case of `CCN1C(=O)CSC1=Nc1ccc(Cl)c(Cl)c1`, the Potency is reported as inconclusive: 1.26 µM [inhibitor, single point]. With `O=C(O)CSc1nnc(NC(=O)c2ccc3c(c2)OCO3)s1` the Potency was active: 8.91 µM. In the case of `CCN(CC)S(=O)(=O)c1cc(NC(=O)COC(=O)CCC(=O)c2ccc(F)cc2)ccc1C`, the Potency is reported as inconclusive: 0.517 µM [inhibitor, full curve, poor fit]. With `COC(=O)c1c(NC(=O)CCc2ccc(C)o2)sc(C)c1C` the “activity change, negative = inhibition” value was inactive: -7.79%. For `Cc1ccccc1-n1c(=O)c(C#N)cc2c(=O)n3ccccc3nc21`, the “activity change, negative = inhibition” value was inactive: 8.12%. In the case of `COc1cc(/C=C/c2nc3ccccc3s2)cc(OC)c1O`, the Potency is reported as inconclusive: 35.5 µM [inhibitor, single point]. With `CCC(C)(C)C1CCC(=NNc2nc3ccccc3[nH]2)CC1` (configuration not stated) the Potency was active: 8.2 µM. With `O=C(Cc1ccccn1)c1ccncc1` the Potency was inconclusive: 35.5 µM [activator, single point]. For `COC(=O)C1=C(C(=O)OC)[C@@H]2N(C)c3ccccc3[C@@]23CCC(=O)N(Cc2ccco2)C3=N1`, the Potency was inconclusive: 0.596 µM [inhibitor, partial curve, poor fit]. In the case of `O=C(CCN1CCN(c2ccccc2F)CC1)Nc1ccc2c(c1)OCO2`, the Potency is reported as inconclusive: 0.259 µM [inhibitor, full curve, poor fit]. With `Cc1ccc(-c2noc(C(C)NC(=O)c3ccco3)n2)cc1` (configuration not stated) the “activity change, negative = inhibition” value was inactive: 17.9% [at 46.1 µM]. For `O=C(NCC(c1cccs1)N1CCOCC1)c1cnc(Cl)c(Cl)c1` (configuration not stated), the “activity change, negative = inhibition” value was inactive: -16.7%. In the case of `COc1ccc(S(=O)(=O)c2c(SC)nn(CC(=O)Nc3ccc(C)c(Cl)c3)c2N)cc1`, the Potency is reported as inconclusive: 35.5 µM [inhibitor, single point]. For `Oc1ccccc1C=NN1CCCCCC1`, the Potency was inconclusive: 1.26 µM [inhibitor, single point]. With `COCc1nnc(NC(=O)C2CC(=O)N(CCc3ccc(F)cc3)C2)s1` (configuration not stated) the “activity change, negative = inhibition” value was inactive: 12.6% [at 46.1 µM]. For `O=C(NC(=S)NCCc1ccccc1)c1ccccc1`, the “activity change, negative = inhibition” value was inactive: 2.94%. In the case of `O=C1OCC(c2ccc(Cl)s2)=C1c1ccccc1[N+](=O)[O-]`, the Potency is reported as inconclusive: 14.1 µM [inhibitor, single point]. For `O=C(Cc1cccs1)N/N=C/C=C/c1ccccc1`, the “activity change, negative = inhibition” value was inactive: 2.87%. With `COc1ccccc1N1CCN(C(=S)Nc2cccc(C)c2)CC1` the Potency was inconclusive: 14.1 µM [inhibitor, partial curve, poor fit]. For `CC(=O)/C=C1\N(C)c2ccc(C)cc2C1(C)C`, the Potency was inconclusive: 3.55 µM [activator, partial curve, poor fit]. In the case of `CCc1cc2c(=O)c(-c3nc(C)cs3)c(CCCC(=O)O)oc2cc1O`, the “activity change, negative = inhibition” value is reported as inactive: 12.3% [at 46.1 µM]. With `Cc1ccc(-c2cn3cc(C)ccc3n2)cc1` the Potency was inconclusive: 1.12 µM [inhibitor, full curve, poor fit]. With `CC(C(=O)Nc1ccccc1Br)N1c2cccc3cccc(c23)S1(=O)=O` (configuration not stated) the Potency was inconclusive: 35.5 µM [inhibitor, partial curve, poor fit]. With `O=S(=O)(c1cccc(NC(=S)N2CCN(c3cccc(Cl)c3)CC2)c1)C(F)F` the Potency was inconclusive: 35.5 µM [inhibitor, single point]. With `COc1cccc(CNC(=O)c2ccc3c(c2)nc2n3CCOC2)c1OC` the “activity change, negative = inhibition” value was inactive: 5.86% [at 46.1 µM]. For `Cc1cccc(-n2nnc(-c3nc(-c4ccccc4)no3)c2N)c1C`, the Potency was inconclusive: 3.55 µM [activator, single point]. For `CC(C)CCCCCCNC(=S)Nc1ccc(S(=O)(=O)N2CCOCC2)cc1`, the Potency was inconclusive: 20 µM [inhibitor, single point]. For `Cc1ccc(CNC(=S)Nc2ccc(NS(=O)(=O)c3ccc(C)cc3)cc2)cc1`, the Potency was inconclusive: 22.4 µM [inhibitor, single point]. In the case of `COC(=O)C1=C(CN2CCCc3ccccc32)NC(=O)NC1c1ccc(F)cc1` (configuration not stated), the Potency is reported as inconclusive: 0.291 µM [inhibitor, full curve, poor fit]. With `CN(C)c1ccc(/C=C/c2ccncc2)cc1` the Potency was inconclusive: 6.31 µM [activator, single point]. With `O=C(Oc1ccc(-c2ccccc2)cc1)c1ccco1` the “activity change, negative = inhibition” value was inactive: -4.15% [at 46.1 µM]. In the case of `COC(=O)c1[nH]c2cc(C)ccc2c1NC(=O)CN1CCN(c2ccccc2OC)CC1`, the Potency is reported as inconclusive: 7.94 µM [inhibitor, partial curve]. In the case of `Cc1ccccc1C(=O)Nc1sc(C)c(C)c1C(=O)c1ccccc1`, the Potency is reported as inconclusive: 29.1 µM [inhibitor, single point]. With `COCc1nc2ccccc2n1Cc1ccc(Br)cc1` the Potency was inconclusive: 35.5 µM [inhibitor, single point]. For `O=C(Nc1cccc(Cl)c1)Nc1cc(S(=O)(=O)N2CCCCC2)ccc1Cl`, the Potency was inconclusive: 11.2 µM [inhibitor, partial curve, poor fit]. With `Cc1oc(C(C)(C)C)cc1C(=O)NC1CCN(Cc2ccccc2)CC1` the Potency was inconclusive: 17.8 µM [inhibitor, partial curve, poor fit]. In the case of `CC(CCN1CCCCc2nc(C)c(C)cc21)=NO[C@H](C)CN1CCCc2nc(C)c(C)cc21`, the Potency is reported as inconclusive: 1.33 µM [activator, single point]. With `Cc1[nH]c2ccccc2c1C(=O)CN1C(=O)NC2(CC(C)CC(C)(C)C2)C1=O` (configuration not stated) the Potency was inconclusive: 16.4 µM [inhibitor, single point]. In the case of `Cc1cc(C)c2c(=O)cc(C(=O)Nc3sc4c(c3C#N)CCCC4)oc2c1`, the “activity change, negative = inhibition” value is reported as inactive: 19.3% [at 46.1 µM]. For `O=C(CCNC(=O)c1ccco1)Nc1ccc(Cl)cc1`, the Potency was inconclusive: 35.5 µM [inhibitor, single point]. In the case of `O=C(NCc1ccc(F)cc1)c1ccc2c(c1)N(Cc1c(F)cccc1Cl)C(=O)CS2`, the “activity change, negative = inhibition” value is reported as inactive: 10.1% [at 46.1 µM]. With `CC(=O)Oc1cccc(N2C(=O)C3C4C=CC(C4)C3C2=O)c1` (configuration not stated) the Potency was inconclusive: 0.92 µM [inhibitor, full curve, poor fit]. With `CC(OC(=O)c1cc(=O)[nH]c2ccccc12)C(=O)c1ccccc1` (configuration not stated) the “activity change, negative = inhibition” value was inactive: 22% [at 46.1 µM]. In the case of `CC1=C(c2ccc(C)cc2)S(=O)(=O)N(Cc2ccc(C(=O)NCc3ccccc3)cc2)C1=O`, the “activity change, negative = inhibition” value is reported as inactive: -28.8% [at 46.1 µM]. With `S=P1(Oc2ccccc2)Nc2ccccc2N1` the Potency was inconclusive: 31.6 µM [activator, single point]. With `NS(=O)(=O)c1ccc(N2CCCCCC2)c([N+](=O)[O-])c1` the Potency was inconclusive: 35.5 µM [inhibitor, partial curve, poor fit]. With `O=C(COc1ccc(F)cc1)N1CCc2ccccc2C1` the Potency was inconclusive: 14.1 µM [activator, partial curve, poor fit]. With `O=C(N/N=C/c1ccc(OC2CSC2)cc1)c1ccc(CN2CCOCC2)cc1` the Potency was inconclusive: 8.91 µM [inhibitor, partial curve]. With `COC(=O)C1=C(C)N(CCc2ccc(OC)cc2)C(=O)C1` the Potency was inconclusive: 6.31 µM [inhibitor, full curve]. In the case of `COc1cc2cc(CN(C(=O)NC3CCCCC3)C3CCCC3)c(=O)[nH]c2cc1OC`, the “activity change, negative = inhibition” value is reported as inactive: -2.13%.
